Assay results as given in publication PMC4091705.
Results are given in words; binding and its absence hold for the method and conditions named. In cells and extracts the contact can be indirect. Here binding means that the protein was enriched with, or labelled near, the bait; the list need not be complete.

Sequences of proteins named here, by UniProt entry; tags and fusion partners are left off.
UniProt Q17551: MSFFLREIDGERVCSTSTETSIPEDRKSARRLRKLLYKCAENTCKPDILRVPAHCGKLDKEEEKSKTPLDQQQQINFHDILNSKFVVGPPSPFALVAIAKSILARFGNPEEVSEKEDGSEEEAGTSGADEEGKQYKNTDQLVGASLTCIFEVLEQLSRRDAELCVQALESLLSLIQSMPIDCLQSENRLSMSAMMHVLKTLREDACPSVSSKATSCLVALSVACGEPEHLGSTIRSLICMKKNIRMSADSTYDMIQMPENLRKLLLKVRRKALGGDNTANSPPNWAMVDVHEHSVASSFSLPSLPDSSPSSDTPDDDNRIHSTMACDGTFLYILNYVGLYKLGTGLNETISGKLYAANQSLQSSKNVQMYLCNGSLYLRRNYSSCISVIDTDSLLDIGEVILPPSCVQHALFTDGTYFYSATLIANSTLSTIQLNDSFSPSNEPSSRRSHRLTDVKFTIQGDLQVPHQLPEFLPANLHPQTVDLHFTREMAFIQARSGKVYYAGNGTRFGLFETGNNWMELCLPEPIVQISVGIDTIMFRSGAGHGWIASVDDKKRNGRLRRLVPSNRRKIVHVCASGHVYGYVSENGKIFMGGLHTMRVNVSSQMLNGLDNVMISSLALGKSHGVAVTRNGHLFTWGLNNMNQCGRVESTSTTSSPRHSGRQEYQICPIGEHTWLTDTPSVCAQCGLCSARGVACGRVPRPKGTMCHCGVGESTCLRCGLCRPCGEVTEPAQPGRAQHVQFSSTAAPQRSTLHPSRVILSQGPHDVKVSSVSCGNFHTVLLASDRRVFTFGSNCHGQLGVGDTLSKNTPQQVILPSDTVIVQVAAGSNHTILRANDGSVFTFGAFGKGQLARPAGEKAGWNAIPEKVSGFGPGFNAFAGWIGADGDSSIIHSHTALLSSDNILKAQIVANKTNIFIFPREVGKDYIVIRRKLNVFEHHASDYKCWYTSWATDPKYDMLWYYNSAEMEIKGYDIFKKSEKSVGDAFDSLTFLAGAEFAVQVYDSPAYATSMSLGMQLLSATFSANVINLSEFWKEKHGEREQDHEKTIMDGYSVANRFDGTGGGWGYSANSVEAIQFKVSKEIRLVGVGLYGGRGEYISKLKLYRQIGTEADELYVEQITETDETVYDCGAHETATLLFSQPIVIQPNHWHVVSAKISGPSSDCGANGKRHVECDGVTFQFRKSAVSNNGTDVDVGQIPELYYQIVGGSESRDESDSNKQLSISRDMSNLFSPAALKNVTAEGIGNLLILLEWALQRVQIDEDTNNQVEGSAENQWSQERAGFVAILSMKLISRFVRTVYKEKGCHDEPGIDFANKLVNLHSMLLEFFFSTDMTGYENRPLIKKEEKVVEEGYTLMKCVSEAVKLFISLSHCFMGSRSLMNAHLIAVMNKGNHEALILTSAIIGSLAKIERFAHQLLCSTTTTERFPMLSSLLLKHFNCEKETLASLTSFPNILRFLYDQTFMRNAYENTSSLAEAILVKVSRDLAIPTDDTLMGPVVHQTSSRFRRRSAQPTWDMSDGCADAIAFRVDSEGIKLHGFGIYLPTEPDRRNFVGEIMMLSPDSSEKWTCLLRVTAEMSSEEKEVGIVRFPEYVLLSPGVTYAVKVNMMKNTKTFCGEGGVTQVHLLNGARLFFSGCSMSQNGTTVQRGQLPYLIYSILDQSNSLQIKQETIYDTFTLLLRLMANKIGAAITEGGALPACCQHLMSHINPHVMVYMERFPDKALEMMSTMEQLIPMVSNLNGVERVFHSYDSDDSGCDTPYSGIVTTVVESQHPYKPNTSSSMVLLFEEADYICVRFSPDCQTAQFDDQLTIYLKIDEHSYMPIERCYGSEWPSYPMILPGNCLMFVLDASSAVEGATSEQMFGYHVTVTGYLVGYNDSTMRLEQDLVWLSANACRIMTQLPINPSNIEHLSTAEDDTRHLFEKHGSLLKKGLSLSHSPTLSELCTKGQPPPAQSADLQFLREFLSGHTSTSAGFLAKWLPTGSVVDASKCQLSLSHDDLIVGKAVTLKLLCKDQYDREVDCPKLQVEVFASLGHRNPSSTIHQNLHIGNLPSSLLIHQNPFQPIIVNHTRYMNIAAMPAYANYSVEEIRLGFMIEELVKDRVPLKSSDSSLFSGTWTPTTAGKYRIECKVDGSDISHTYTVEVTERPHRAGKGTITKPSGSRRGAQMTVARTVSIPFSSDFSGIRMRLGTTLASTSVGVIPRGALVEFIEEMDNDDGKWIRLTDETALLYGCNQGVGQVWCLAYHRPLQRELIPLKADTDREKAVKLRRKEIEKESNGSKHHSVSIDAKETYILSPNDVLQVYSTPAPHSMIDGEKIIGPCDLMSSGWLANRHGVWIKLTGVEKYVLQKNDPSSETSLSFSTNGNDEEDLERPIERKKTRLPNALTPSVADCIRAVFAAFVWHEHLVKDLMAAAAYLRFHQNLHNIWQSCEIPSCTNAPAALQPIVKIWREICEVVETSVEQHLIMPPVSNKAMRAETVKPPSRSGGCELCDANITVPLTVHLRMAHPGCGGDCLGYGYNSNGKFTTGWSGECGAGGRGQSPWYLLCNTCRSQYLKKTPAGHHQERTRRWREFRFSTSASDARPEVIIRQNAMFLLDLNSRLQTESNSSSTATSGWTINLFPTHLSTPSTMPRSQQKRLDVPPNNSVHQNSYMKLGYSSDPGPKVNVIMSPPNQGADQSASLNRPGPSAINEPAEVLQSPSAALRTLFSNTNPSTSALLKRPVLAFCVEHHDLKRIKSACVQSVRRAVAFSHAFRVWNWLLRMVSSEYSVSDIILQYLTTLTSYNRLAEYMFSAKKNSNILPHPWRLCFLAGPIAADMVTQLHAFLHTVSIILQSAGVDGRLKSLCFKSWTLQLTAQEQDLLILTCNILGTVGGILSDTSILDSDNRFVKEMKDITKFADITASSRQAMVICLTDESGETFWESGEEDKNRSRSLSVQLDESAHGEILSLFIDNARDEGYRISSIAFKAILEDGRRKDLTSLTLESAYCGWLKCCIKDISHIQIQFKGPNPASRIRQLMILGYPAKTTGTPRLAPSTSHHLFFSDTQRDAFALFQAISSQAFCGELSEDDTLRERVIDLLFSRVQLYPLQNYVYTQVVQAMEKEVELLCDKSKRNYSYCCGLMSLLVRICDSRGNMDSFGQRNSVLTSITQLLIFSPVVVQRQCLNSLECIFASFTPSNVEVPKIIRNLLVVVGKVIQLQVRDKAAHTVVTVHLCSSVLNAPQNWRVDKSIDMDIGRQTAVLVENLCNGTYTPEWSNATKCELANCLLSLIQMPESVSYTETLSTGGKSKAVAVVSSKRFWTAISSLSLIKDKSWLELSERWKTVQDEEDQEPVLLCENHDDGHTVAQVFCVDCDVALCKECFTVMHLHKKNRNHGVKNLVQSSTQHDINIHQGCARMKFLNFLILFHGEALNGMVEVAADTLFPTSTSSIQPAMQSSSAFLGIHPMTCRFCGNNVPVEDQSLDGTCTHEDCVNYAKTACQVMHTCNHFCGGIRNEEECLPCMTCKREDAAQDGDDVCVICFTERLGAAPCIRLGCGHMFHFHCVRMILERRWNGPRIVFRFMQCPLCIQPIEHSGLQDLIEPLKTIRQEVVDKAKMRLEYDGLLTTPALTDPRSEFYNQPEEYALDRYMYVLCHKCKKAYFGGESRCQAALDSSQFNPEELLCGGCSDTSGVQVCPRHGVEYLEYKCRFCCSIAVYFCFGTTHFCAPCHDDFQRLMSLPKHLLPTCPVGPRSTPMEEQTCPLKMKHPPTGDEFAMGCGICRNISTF

Biological target: Regulator of Presynaptic Morphology 1 (RPM-1) fused with Green Fluorescent Protein (C. elegans) (UniProt Q17551)
Experiment: affinity purification with mass spectrometry; RPM-1::GFP purified from whole worm lysate with an anti-GFP antibody; binding proteins identified by mass spectrometry and de novo peptide sequencing

- binding: binds
Substance: abnormal nuclear Anchorage 1 (ANC-1) (from UniProt Q9N4M4 1-8545)
